In PMC4749557 one finds binding data, which are given here for two substances.

Sequences of proteins named here, by UniProt entry; tags and fusion partners are left off.
UniProt O09106: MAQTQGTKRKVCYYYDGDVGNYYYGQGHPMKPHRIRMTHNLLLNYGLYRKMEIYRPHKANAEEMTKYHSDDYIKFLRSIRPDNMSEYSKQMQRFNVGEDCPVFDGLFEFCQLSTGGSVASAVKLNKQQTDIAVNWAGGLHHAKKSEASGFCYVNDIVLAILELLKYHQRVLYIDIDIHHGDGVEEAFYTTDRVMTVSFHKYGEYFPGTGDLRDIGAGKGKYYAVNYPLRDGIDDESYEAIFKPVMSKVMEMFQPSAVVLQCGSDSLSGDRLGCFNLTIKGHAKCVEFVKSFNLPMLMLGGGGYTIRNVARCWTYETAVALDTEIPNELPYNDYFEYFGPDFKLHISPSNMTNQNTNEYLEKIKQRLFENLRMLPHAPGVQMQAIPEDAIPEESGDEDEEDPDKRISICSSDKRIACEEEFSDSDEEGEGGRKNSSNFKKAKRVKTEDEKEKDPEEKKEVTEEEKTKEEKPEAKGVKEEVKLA
UniProt P70288: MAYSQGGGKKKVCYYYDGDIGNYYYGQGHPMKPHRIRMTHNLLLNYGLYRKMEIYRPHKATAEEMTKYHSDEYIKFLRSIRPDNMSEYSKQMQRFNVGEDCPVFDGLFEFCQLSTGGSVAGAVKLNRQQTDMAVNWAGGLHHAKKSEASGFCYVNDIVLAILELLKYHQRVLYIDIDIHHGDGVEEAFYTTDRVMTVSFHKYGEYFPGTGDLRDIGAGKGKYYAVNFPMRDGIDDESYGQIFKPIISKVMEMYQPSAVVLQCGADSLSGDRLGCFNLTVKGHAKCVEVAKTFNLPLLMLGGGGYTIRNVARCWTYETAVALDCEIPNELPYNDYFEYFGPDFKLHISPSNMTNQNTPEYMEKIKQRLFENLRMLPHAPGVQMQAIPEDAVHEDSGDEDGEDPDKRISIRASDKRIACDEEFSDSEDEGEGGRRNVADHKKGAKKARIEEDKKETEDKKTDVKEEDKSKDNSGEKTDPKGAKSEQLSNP

The target in this test is T1, FLAG–HA tagged Prdm14 (FH-Prdm14), stably expressed in mESCs (mouse) (UniProt E9Q3T6).
T1 sequence: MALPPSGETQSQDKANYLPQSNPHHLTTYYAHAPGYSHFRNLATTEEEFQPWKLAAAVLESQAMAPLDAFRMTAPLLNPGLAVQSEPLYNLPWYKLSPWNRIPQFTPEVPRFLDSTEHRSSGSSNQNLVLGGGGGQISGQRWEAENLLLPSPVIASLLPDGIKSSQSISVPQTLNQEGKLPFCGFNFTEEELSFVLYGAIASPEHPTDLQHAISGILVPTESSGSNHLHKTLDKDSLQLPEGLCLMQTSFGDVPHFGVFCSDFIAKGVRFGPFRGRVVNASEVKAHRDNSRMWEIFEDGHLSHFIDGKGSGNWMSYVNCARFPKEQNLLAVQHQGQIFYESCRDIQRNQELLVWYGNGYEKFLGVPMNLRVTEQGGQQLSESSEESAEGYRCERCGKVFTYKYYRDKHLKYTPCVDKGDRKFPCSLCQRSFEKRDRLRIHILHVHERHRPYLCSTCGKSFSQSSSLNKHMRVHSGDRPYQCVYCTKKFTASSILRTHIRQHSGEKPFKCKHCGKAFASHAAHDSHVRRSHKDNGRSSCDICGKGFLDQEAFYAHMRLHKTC
Nature of the test: affinity purification with mass spectrometry; two-step immunopurification (FLAG M2 beads with peptide elution, then HA antibody) from FH-Prdm14 mESC nuclear extracts, wt mESCs as control; SDS-PAGE, silver stain, mass spectrometry.

These are yes or no findings as the source states them, for the method shown. In cells and extracts the contact can be indirect. These calls come from enrichment with a bait or labelling near it, and not all partners need be listed. Where a sequence is shown, tags or fusion partners need not be part of it.

On to “HDAC1, endogenous in mESCs (from UniProt O09106 1-482) (enzyme)”, for which the binding result was “binds”.

“HDAC2, endogenous in mESCs (from UniProt P70288 1-488) (enzyme)”: the binding result was “binds”.
